Laboratory results as given in paper PMC5095005.
No constants are given. Whether binding was seen depends on the method and setting. In cells and extracts the contact can be indirect. Some entries that bind do so weakly or less than the wild type. For some assays here: Where a sequence is shown, tags or fusion partners need not be part of it.

Amino acid sequences for entries named in this document (tags omitted). A change or cut given only in a name is not applied to a line headed by its entry. Chains listed by the source or under a name are the forms on record and can include a tag or linker.
UniProt Q07820: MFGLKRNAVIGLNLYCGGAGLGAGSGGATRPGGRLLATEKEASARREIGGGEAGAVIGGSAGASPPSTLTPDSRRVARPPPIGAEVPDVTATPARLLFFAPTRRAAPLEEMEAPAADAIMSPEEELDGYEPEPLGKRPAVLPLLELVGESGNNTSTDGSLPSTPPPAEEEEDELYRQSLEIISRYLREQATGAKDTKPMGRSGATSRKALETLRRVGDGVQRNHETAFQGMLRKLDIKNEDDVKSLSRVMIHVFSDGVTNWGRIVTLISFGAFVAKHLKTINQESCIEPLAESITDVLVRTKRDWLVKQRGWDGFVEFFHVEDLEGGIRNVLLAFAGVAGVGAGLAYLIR
Myc-tagged human MCL-1 2A mutant (Ser64 and Thr70 substituted to Ala) (Q07820, form named): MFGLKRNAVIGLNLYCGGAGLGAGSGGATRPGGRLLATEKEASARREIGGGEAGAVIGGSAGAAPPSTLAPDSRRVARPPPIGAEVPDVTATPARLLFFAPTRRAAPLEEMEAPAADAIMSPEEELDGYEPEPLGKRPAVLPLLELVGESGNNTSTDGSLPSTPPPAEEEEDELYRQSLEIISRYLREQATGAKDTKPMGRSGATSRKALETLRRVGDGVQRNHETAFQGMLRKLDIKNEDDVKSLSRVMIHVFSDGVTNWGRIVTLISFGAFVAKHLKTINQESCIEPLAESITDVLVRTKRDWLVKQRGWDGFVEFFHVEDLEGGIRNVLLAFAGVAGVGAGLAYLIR

Columns and labels:
[1] = molecular target: Myc-tagged human MCL-1 wild-type (human), Q07820; assay: co-IP; Myc-MCL-1 (wt, 2A or 6A) co-transfected with Noxa in 293T cells for 24 h; CHAPS lysis buffer; which protein was precipitated is not told; settings: remark: other sources report otherwise
[2] = molecular target: Myc-tagged human MCL-1 2A mutant (Ser64 and Thr70 substituted to Ala) (human) (UniProt Q07820); assay: as above
[3] = molecular target: Myc-tagged human MCL-1 wild-type (human), Q07820; assay: co-IP; HA-Noxa, Myc-MCL-1 (wt or 2A) and/or Flag-CDK2 transfected into 293T cells for 24 h; total extracts immunoprecipitated with anti-Myc antibodies; CHAPS lysis buffer; settings: remark: other sources report otherwise
[4] = molecular target: Myc-tagged human MCL-1 2A mutant (Ser64 and Thr70 substituted to Ala) (human) (UniProt Q07820); assay: as above
[5] = molecular target: MCL-1, endogenous in HeLa cells (human (endogenous in HeLa)), Q07820; assay: co-IP; endogenous proteins; HeLa cells treated with cisplatin for 4 h; total extracts immunoprecipitated with anti-CDK2 or anti-MCL-1 antibodies; settings: remark: other sources report otherwise

B1: human Noxa co-transfected with MCL-1 in 293T cells (Figure 5A), Q13794 1-54 (protein)
chain: MPGKKARKNAQPSPARAPAELEVECATQLRRFGDKLNFRQKLLNLISKLFCSGT
binding [1]: binds

B2: human Noxa co-transfected with MCL-1 in 293T cells (Figure 5A) (protein, UniProt Q13794 1-54)
chain: B1 chain
binding [2]: binds

B3: HA-tagged Noxa, Q13794 1-54 (protein)
chain: B1 chain
binding [3]: binds

B4: HA-tagged Noxa (protein, UniProt Q13794 1-54)
chain: B1 chain
binding [4]: binds

B5: Noxa, endogenous in HeLa cells, Q13794 1-54 (protein)
chain: B1 chain
binding [5]: binds
